Reference: the supplement of paper PMC10849652
This is one part of the list.

Chains of the proteins cited; added tags and fusions are not shown. Lines headed by an entry give the natural chain unless they say otherwise; changes in a name come on top.
UniProt P49916: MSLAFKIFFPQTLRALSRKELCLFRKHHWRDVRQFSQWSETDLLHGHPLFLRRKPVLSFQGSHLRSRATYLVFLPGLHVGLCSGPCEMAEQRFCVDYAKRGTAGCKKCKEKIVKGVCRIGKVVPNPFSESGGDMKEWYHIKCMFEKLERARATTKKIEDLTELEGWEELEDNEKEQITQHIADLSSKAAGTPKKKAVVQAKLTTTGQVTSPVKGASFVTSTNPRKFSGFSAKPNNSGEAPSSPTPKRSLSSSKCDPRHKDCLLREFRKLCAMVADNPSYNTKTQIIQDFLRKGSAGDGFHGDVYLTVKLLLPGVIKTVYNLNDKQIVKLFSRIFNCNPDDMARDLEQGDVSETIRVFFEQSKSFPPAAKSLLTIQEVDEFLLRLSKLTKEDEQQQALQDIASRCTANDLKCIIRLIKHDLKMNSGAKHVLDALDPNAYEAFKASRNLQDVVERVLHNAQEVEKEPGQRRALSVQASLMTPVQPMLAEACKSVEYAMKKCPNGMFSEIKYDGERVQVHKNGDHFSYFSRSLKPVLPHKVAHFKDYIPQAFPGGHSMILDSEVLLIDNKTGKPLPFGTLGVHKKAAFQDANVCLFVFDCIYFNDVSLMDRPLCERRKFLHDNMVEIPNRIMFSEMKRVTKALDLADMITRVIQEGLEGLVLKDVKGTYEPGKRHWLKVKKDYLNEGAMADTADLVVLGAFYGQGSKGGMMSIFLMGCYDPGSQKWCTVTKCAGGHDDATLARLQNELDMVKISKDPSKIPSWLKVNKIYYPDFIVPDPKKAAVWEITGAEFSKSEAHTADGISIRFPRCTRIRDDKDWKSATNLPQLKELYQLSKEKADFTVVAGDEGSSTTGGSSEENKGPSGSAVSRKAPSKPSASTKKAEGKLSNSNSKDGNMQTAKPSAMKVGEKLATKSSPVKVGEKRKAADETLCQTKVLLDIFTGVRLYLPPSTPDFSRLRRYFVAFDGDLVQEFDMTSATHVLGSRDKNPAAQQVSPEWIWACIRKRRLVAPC
UniProt Q96PV6, whole entry, looked up: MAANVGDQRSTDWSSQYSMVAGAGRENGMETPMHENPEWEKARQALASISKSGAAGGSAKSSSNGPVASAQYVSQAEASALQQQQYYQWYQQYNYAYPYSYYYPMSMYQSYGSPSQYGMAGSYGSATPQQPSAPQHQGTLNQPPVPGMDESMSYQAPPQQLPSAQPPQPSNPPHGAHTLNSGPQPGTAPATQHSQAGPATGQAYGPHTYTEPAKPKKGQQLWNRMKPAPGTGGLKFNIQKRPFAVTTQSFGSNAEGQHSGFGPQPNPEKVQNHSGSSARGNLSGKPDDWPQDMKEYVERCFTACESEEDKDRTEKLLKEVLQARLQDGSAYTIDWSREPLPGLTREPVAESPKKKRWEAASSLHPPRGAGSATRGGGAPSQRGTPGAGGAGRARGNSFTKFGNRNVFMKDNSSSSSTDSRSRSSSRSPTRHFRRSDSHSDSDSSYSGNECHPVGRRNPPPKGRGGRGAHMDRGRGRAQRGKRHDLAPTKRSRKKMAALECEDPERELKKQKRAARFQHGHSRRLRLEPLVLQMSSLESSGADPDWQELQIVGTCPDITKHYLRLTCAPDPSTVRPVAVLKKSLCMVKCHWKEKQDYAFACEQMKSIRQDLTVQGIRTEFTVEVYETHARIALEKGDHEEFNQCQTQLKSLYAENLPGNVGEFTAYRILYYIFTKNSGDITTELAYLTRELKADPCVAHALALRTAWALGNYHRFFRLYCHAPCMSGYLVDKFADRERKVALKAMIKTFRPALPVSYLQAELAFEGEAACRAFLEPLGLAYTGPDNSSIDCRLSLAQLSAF
UniProt Q9Y4Y9: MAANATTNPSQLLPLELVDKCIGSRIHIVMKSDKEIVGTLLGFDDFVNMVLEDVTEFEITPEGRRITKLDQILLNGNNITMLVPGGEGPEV
UniProt P09382, whole entry, looked up: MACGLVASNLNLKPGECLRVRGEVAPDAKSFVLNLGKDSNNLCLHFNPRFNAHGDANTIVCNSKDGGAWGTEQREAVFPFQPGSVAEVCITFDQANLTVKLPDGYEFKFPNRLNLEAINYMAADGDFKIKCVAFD
UniProt P61968: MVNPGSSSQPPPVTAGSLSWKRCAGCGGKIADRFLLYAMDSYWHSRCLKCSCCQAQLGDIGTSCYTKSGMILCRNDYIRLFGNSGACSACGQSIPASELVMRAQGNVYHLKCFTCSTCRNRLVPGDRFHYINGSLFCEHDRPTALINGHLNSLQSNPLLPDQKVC
UniProt P25791: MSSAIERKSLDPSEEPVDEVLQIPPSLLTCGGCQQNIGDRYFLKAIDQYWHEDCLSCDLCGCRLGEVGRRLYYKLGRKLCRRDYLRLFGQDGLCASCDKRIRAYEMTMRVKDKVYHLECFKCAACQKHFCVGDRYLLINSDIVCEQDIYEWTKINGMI
UniProt P49917: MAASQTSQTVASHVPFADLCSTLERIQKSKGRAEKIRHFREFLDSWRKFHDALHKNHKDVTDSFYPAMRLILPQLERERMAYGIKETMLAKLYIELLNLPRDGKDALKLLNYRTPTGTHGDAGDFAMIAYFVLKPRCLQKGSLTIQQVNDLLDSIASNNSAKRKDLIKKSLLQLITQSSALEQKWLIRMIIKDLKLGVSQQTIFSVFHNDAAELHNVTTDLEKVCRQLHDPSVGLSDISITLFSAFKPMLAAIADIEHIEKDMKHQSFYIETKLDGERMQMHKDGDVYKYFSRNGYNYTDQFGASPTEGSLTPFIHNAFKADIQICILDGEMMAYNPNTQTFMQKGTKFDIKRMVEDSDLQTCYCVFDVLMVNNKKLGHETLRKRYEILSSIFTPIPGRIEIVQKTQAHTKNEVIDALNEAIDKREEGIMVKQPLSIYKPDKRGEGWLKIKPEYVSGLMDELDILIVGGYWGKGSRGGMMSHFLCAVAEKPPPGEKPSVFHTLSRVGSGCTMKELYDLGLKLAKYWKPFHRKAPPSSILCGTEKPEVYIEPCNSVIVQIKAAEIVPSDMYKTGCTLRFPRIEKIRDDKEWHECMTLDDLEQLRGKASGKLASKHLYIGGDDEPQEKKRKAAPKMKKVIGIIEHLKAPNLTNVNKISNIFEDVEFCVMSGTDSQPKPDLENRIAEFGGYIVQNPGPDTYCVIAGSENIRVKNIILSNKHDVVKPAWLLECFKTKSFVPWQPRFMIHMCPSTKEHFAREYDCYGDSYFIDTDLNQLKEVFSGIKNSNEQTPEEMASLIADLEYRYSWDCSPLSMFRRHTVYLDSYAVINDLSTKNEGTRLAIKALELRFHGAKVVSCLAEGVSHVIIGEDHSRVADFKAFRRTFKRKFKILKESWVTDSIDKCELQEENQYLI
UniProt Q96II8: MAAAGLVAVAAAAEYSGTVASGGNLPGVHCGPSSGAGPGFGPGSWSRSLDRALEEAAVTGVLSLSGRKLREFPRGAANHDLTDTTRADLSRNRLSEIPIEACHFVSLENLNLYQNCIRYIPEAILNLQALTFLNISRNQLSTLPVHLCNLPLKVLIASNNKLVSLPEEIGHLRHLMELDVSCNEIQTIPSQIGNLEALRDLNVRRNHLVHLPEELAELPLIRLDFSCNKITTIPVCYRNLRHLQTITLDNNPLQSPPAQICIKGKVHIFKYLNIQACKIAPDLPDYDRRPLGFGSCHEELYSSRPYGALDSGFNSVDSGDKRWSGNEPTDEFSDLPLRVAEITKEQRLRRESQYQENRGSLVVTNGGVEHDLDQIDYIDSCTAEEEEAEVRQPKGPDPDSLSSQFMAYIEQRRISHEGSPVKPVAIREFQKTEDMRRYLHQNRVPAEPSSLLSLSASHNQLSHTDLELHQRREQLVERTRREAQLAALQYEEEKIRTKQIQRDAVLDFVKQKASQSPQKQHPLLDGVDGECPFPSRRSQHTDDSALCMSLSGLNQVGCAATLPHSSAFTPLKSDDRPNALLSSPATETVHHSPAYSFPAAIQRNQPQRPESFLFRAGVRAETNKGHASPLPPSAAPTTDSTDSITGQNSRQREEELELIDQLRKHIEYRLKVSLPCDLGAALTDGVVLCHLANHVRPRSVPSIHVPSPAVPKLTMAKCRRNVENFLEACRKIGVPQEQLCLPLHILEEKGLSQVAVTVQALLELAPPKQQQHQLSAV
UniProt Q86X29: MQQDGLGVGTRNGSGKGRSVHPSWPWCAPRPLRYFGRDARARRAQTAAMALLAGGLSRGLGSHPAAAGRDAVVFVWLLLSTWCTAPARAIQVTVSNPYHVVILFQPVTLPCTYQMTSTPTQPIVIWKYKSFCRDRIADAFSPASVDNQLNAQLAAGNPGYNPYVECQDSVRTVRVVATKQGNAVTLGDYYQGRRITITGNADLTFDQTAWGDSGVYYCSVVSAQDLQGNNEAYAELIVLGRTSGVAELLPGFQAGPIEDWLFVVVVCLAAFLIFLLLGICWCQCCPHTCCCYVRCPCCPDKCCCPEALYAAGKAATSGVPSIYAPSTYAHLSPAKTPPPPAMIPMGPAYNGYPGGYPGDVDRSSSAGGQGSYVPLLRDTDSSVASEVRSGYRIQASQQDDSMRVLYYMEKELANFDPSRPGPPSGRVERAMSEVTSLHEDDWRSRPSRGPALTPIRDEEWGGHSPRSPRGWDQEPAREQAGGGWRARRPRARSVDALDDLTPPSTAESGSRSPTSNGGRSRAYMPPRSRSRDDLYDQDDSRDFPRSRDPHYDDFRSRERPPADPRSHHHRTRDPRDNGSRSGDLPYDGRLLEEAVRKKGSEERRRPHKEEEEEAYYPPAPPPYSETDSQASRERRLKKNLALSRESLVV
UniProt P80188: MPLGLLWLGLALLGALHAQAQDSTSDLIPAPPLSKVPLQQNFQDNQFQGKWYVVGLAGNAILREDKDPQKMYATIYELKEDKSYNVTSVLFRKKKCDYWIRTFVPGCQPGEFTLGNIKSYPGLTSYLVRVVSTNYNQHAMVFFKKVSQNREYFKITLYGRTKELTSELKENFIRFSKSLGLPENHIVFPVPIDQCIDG
UniProt Q14739: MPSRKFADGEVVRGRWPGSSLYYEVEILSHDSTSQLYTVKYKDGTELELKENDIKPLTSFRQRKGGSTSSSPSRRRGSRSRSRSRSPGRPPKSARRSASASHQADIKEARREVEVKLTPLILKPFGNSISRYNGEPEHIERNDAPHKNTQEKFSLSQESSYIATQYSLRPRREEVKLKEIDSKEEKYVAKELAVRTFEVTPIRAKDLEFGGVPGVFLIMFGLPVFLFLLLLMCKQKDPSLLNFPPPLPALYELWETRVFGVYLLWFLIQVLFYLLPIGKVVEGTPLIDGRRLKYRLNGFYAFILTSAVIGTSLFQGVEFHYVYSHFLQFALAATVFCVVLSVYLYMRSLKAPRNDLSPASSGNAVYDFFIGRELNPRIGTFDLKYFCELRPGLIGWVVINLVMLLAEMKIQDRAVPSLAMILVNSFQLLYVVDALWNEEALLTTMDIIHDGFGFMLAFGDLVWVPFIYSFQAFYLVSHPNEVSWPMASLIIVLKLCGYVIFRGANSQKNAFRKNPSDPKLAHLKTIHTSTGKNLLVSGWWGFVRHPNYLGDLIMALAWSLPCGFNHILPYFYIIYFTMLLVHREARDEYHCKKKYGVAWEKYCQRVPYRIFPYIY
UniProt Q9NUP9: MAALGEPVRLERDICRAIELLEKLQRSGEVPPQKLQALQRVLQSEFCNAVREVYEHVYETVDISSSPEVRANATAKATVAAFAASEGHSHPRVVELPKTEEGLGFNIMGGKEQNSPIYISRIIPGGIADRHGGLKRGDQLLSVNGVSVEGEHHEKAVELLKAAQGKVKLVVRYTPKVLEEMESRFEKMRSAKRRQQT
UniProt Q8NF37: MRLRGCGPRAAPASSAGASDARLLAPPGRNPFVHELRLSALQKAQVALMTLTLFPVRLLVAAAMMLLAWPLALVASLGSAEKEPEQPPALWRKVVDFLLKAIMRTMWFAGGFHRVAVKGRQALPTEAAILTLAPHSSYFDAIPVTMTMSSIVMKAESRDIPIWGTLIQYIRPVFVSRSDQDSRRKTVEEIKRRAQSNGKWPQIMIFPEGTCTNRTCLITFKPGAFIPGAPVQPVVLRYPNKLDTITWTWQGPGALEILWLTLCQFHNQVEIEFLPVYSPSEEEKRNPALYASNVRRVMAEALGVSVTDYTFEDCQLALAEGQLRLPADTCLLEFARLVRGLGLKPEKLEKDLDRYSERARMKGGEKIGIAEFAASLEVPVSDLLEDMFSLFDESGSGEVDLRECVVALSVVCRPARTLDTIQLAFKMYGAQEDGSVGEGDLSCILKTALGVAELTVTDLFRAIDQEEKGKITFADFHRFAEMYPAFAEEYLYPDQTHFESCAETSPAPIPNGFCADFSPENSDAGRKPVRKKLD
UniProt O95214: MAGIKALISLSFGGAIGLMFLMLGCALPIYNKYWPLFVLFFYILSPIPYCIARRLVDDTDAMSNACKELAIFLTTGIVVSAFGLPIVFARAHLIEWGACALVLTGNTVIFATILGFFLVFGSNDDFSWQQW
UniProt P62312: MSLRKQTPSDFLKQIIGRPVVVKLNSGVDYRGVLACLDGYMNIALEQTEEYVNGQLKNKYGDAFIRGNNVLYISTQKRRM

Assays:
Test in all cases: log2 fold change, soluble protein after heating vs DMSO (PISA); higher = thermal stabilisation; K562 lysate, 10 uM; active = over 0.2 and 3.5 SD of the protein, either way, in both replicates (recomputed)
[1] = compound: NCC(=O)Nc1ccc(-n2nc(C(F)(F)F)cc2-c2ccc3c(ccc4ccccc43)c2)cc1
Summary of the method: (§1)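 Log-two fold change in thermal stability relative to solvent controls is reported from duplicates. For each sample, crude K562 extract from dounce-homogenised pellets in PBS pH 7.4 with 1 mM MgCl2, at 1 mg/mL protein, was treated with 10 μM compound for 30 min. Aliquots heated for 3 min across 48°C-58°C were pooled, brought to 0.5% NP-40 at 4°C and cleared at 21,000xg for 90 min. The supernatant was quantified by TMTpro 16plex LC-MS/MS with channel sums equalised.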

vorinostat = compound: O=C(CCCCCCC(=O)Nc1ccccc1)NO [vorinostat]
Summary of the method: as §1

silmitasertib = compound: O=C(O)c1ccc2c(c1)nc(Nc1cccc(Cl)c1)c1ccncc12 [silmitasertib]
Summary of the method: as §1

[2] = compound: O=C1NC(=O)C(c2cnc3ccccn23)=C1c1cn2c3c(cc(F)cc13)CN(C(=O)N1CCCCC1)CC2
Summary of the method: as §1

entospletinib = compound: c1cn2cc(-c3ccc4cn[nH]c4c3)nc(Nc3ccc(N4CCOCC4)cc3)c2n1 [entospletinib]
Summary of the method: as §1

Measured: log2 fold change

LIG3 (UniProt P49916)
active: vorinostat -0.411
inactive: [1] -0.061 | silmitasertib 0.018 | [2] -0.012 | entospletinib -0.004

LLGL1 (UniProt Q15334)
inactive: [1] 0.078 | silmitasertib 0.077 | [2] -0.046 | entospletinib 0.042
active: vorinostat -0.524

LRRC42 (UniProt Q9Y546)
inactive: [1] 0.031 | vorinostat -0.113 | silmitasertib -0.007 | [2] -0.044 | entospletinib -0.125

LENG8 (UniProt Q96PV6)
inactive: [1] -0.033 | vorinostat 0.11 | silmitasertib 0.007 | [2] 0.064 | entospletinib 0.033

LSM5 (UniProt Q9Y4Y9)
inactive: [1] -0.091 | vorinostat 0.25 | silmitasertib -0.052 | [2] -0.05 | entospletinib 0.031

LGALS1 (UniProt P09382)
inactive: [1] -0.089 | vorinostat 0.124 | silmitasertib -0.029 | [2] 0.036 | entospletinib -0.01

LINS1 (UniProt Q8NG48)
inactive: [1] -0.071 | vorinostat -0.089 | silmitasertib -0.188 | [2] -0.007 | entospletinib -0.032

LIG1 (UniProt P18858)
inactive: [1] 0.001 | vorinostat -0.038 | silmitasertib 0.005 | [2] -0.019 | entospletinib 0

LMO4 (UniProt P61968)
inactive: [1] 0.305 | vorinostat 0.049 | silmitasertib -0.123 | [2] 0.062

LMNB1 (UniProt P20700)
inactive: [1] -0.01 | vorinostat 0.058 | silmitasertib -0.007 | [2] 0.01 | entospletinib -0.024

LIAS (UniProt O43766)
inactive: [1] 0.026 | vorinostat 0.152 | silmitasertib 0.024 | [2] -0.006 | entospletinib 0.036

LMO2 isoform 3 (UniProt P25791)
inactive: [1] -0.024 | vorinostat -0.042 | silmitasertib 0.018 | [2] -0.071 | entospletinib 0.032

LIG4 (UniProt P49917)
inactive: [1] -0.041 | vorinostat -0.368 | silmitasertib 0.107 | [2] -0.039 | entospletinib 0.062

LCORL (UniProt Q8N3X6)
inactive: [1] 0.091 | vorinostat -0.204 | silmitasertib 0.104

LEO1 (UniProt Q8WVC0)
inactive: [1] 0.009 | vorinostat 0.069 | silmitasertib -0.02 | [2] -0.018 | entospletinib 0.004

LRCH3 (UniProt Q96II8)
inactive: [1] 0.053 | silmitasertib 0.048 | [2] -0.03 | entospletinib -0.009
active: vorinostat -0.535

LSR (UniProt Q86X29)
inactive: [1] 0.018 | vorinostat 0.057 | silmitasertib -0.034 | [2] -0.035 | entospletinib 0.041

LCN2 (UniProt P80188)
inactive: [1] -0.127 | vorinostat 0.35 | silmitasertib -0.272

LBR (UniProt Q14739)
inactive: [1] -0.121 | vorinostat 0.17 | silmitasertib -0.001 | [2] -0.076 | entospletinib -0.009

LIN7C (UniProt Q9NUP9)
inactive: [1] -0.005 | vorinostat 0.01 | silmitasertib -0.022 | [2] -0.053 | entospletinib -0.025

2 successive entries already listed:
LINS1 (UniProt Q8NG48)
inactive: [1] -0.071 | vorinostat -0.089 | silmitasertib -0.188 | [2] -0.007 | entospletinib -0.032

LIG1 (UniProt P18858)
inactive: [1] 0.001 | vorinostat -0.038 | silmitasertib 0.005 | [2] -0.019 | entospletinib 0

Further entries follow.

LRRC8C (UniProt E9PHY6)
inactive: [1] -0.003 | vorinostat -0.411 | silmitasertib 0.034

LRRC20 (UniProt Q8TCA0)
inactive: [1] -0.178 | vorinostat 0.134 | silmitasertib 0.012 | [2] -0.098 | entospletinib -0.03

LPCAT1 (UniProt Q8NF37)
inactive: [1] -0.011 | vorinostat 0.027 | silmitasertib -0.076 | [2] -0.026 | entospletinib -0.057

LCP1 (UniProt P13796)
inactive: [1] -0.003 | vorinostat 0.111 | silmitasertib -0.018 | [2] 0.005 | entospletinib 0.006

LEPROTL1 isoform 2 (UniProt O95214)
inactive: [1] -0.012 | vorinostat -0.363 | silmitasertib 0.11

LSM6 (UniProt P62312)
inactive: [1] -0.061 | vorinostat 0.138 | silmitasertib -0.024 | [2] 0.025 | entospletinib 0.029
